This note sets out measurements from PubChem BioAssay AID2685 (National Center for Advancing Translational Sciences (NCATS), 2010).

The assay can be described thus: qHTS Assay for Lipid Storage Modulators in Drosophila S3 Cells.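 For cell number change: cells counted by Cell Tracker Red CMTPX staining in the red channel.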 Conditions: BODIPY lipid droplet fluorescence, 18-24 h; for cell number change: measured here: cell count max response, cells fed with added oleic acid. The method in brief: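 Drosophila S3 cells got compounds at several concentrations plus oleic acid (400 uM solution). Laser-scanning cytometry with 488 nm excitation read lipid droplets at 500-530 nm and cells at 575-640 nm. Percent activity was relative to 20 uM Triacsin C.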
For orientation: Quantitative high-throughput screening tests each substance at several concentrations.

The mark [1] stands for this setting: measured here: lipid fluorescence (Fed channel) AC50, cells fed with added oleic acid.
Setting [2] is: measured here: cell number channel AC50, cells fed with added oleic acid.

Several values for one entry are separate records, joined by “and”; a condition that tells them apart may be missing. Identical values can stand only once. The list shows a part of the results. The main result of the screen is listed elsewhere. These columns were measured beside it and carry no call. The list favours compounds with an active or inconclusive main result. The note in brackets gives the kind of curve behind each potency; many fits are weak.

Take `COc1cccc(Cn2c(-c3cccs3)noc2=O)c1`: the cell number change came out at 10.1%. Besides, the concentration at half-maximal activity (AC50) under setting [1] was 16.4 µM [rising, single point].

As for `Cc1ccc(-n2c(SCC(=O)OC(C)C)nnc2-c2ccccn2)cc1`, the cell number change was -7.76%. The AC50 under setting [1] is 0.116 µM [rising, partial curve, poor fit].

As for `Cc1c2cnn(-c3ccccc3)c(=O)c2c(C)n1CCCC(=O)NCCN1CCN(C)CC1`, the cell number change is 35.1%. For the same molecule, the AC50 under setting [2] is 25.9 µM [rising, single point]. For the same molecule, under setting [1], the AC50 was 20.6 µM [rising, single point].

For `CC(=O)N1C(=O)C(=C2C=C(C)OC(C)=C2)c2ccccc21`, the cell number change was -8.93%. The AC50 under setting [1] is 6.51 µM [falling, single point].

As for `CCC(C)N(C(=O)c1csnn1)C(C(=O)NC1CCCC1)c1ccc(F)cc1` (configuration not stated), the cell number change is -7.62%.

Consider `O=C(CCCn1cncn1)N1CCCC(N2CCN(c3ccccc3F)CC2)C1` (configuration not stated), for which the cell number change is -12.2%. In addition, the AC50 under setting [1] was 0.58 µM [rising, single point].

In the case of `Fc1ccc(-c2cc3nc(-c4ccccc4)cc(N4CCN(CCN5CCOCC5)CC4)n3n2)cc1`, the cell number change stood at 43.7%. Moreover, the half-maximal activity concentration (AC50) under setting [2] is 32.6 µM [rising, single point]. Also, the AC50 under setting [1] is 29.1 µM [rising, single point].

Regarding `CC(Sc1nc2cc([N+](=O)[O-])ccc2n1-c1ccc(F)cc1)C(=O)NCc1ccc2c(c1)OCO2` (configuration not stated), the cell number change was 2.99%. For the same molecule, under setting [1], the AC50 was 6.51 µM [rising, partial curve].

With `OC1NC(=S)N(c2ccccc2)C1O` (configuration not stated), the cell number change was -2.13%. Moreover, the AC50 under setting [2] was 0.58 µM [falling, full curve].

For the molecule `CCOC(=O)Cn1c(-c2cccnc2Cl)nc2cc(C)c(C)cc21`, the cell number change worked out at 3.96%. For the same molecule, the AC50 under setting [2] is 6.51 µM [rising, single point]. The AC50 under setting [1] was 29.1 µM [rising, single point].

With `Cc1c(C(=O)O)cccc1-c1ccc(/C=N/Nc2ccc(Br)cc2)o1`, the cell number change worked out at 3.85%. Further, the AC50 under setting [1] is 2.31 µM [rising, partial curve, poor fit].

Regarding `CCN(C(=O)c1ccco1)c1nnc(-c2cccnc2)s1`, the cell number change is 30.7%. The AC50 under setting [1] is 0.411 µM [falling, full curve].

Turning to `CCOc1ccc(C(=O)NCC(=O)NCC(c2ccco2)N2CCCCC2)cc1` (configuration not stated), the cell number change is 0.268%. Besides, the AC50 under setting [1] is 3.66 µM [rising, single point].

Turning to `CC(C)NCC(O)COc1c(F)cc(Br)cc1F` (configuration not stated), the cell number change was -25.4%. Besides, the AC50 under setting [1] was 29.1 µM [falling, single point].

With `Cn1c(SCC(=O)N/N=C/C=C\c2ccco2)nc2ccccc21`, the cell number change was -31.8%. The half-maximal activity concentration (AC50) under setting [2] was 8.2 µM [falling, partial curve, poor fit].

In the case of `CCC1C(=O)N=C(SCC(=O)Nc2ccc(Br)cn2)NC1=O` (configuration not stated), the cell number change is -47.2%. Further, under setting [2], the AC50 is 2.06 µM [falling, partial curve]. Further, under setting [1], the concentration at half-maximal activity (AC50) is 1.84 µM [falling, partial curve].

`O=S(=O)(c1cnc[nH]1)N1CCCCCC1`: the cell number change is -39.5%. Also, under setting [2], the AC50 is 18.4 µM [falling, single point]. Further, under setting [1], the AC50 was 3.66 µM [falling, full curve].

As to `Cc1[nH]n(-c2ccccc2)c(=O)c1C=Nc1ccc(S(=O)(=O)Nc2nccs2)cc1`, under setting [2], the AC50 was 0.411 µM [rising, single point].

For the molecule `Cc1ccc(C(=O)NC(=O)OCCn2c(C)cnc2[N+](=O)[O-])cc1`, under setting [2], the AC50 was 0.146 µM [rising, partial curve, poor fit].

Take `Cc1oc2c(c(C)cc3oc(=O)c(CC(=O)N[C@@H](CCCNC(N)=O)C(=O)O)c(C)c32)c1C`: the cell number change amounted to 18.9%. The AC50 under setting [1] is 29.1 µM [rising, single point].

`C=CCn1c(=O)c2c(nc3n2CC(C)CN3c2cccc(OC)c2)n(C)c1=O` (configuration not stated): the cell number change is -20.1%. Besides, under setting [1], the AC50 was 32.6 µM [falling, partial curve, poor fit].

Turning to `O=C(NCc1ccccc1)c1cccc(OCC(=O)N2CCN(C(=O)c3ccco3)CC2)c1`, the cell number change is -0.057%.

On to `COC(=O)CSc1nc2ccccc2n1CC(=O)N(C(C)C)C(C)C`, for which the cell number change is -25.1%. Further, the concentration at half-maximal activity (AC50) under setting [1] is 6.51 µM [falling, partial curve].

For the molecule `CN(CC(=O)Nc1cccnc1Cl)S(=O)(=O)c1ccc(Cl)cc1`, the cell number change is 5.78%. Further, the AC50 under setting [1] is 16.4 µM [rising, single point].

As for `CCN1CCN(C(=O)CSCc2nc(-c3ccc(OC)c(OC)c3)oc2C)CC1`, the cell number change is -0.184%.

For the molecule `O=C(CN1CCN(Cc2ccccc2)CC1)NCCNc1ccc([N+](=O)[O-])cn1`, the cell number change is -48.4%. Besides, the AC50 under setting [2] was 2.59 µM [falling, full curve]. In addition, the AC50 under setting [1] was 5.17 µM [falling, single point].

Consider `CC(C(=O)N1CCN(c2ccccc2)CC1)N1C(=O)C2CC=CCC2C1=O` (configuration not stated), for which the cell number change is -39.2%. Besides, the AC50 under setting [2] was 4.61 µM [falling, full curve, poor fit]. Further, under setting [1], the AC50 was 0.366 µM [falling, full curve, poor fit].

For the molecule `COc1cc(NC(=O)COc2ccccc2[N+](=O)[O-])ccc1NC(=O)c1cccs1`, the cell number change is -57.8%.

As for `Nc1cc(C(Cl)=C(Cl)Cl)c(S(N)(=O)=O)cc1S(N)(=O)=O`, the cell number change is -33.2%. Further, under setting [2], the AC50 was 0.092 µM [falling, full curve, poor fit]. Moreover, the half-maximal activity concentration (AC50) under setting [1] was 0.092 µM [falling, full curve, poor fit].

As for `Fc1ccccc1Nc1nc(-c2ccncc2)nc2ccccc12`, the cell number change is 32.1%. For the same molecule, the AC50 under setting [2] is 2.31 µM [rising, full curve].

With `Cc1ccc(NC(=O)CSc2nc(N)c3cc4c(nc3n2)CCCC4)cc1`, the cell number change was determined as 3.41%. The AC50 under setting [1] was 29.1 µM [falling, single point].

As for `CCN(CC(=O)Nc1c(F)cccc1F)C(=O)Cc1csc(-c2ccccc2)n1`, the cell number change amounted to 107%. The AC50 under setting [2] is 29.1 µM [rising, single point]. Besides, under setting [1], the concentration at half-maximal activity (AC50) is 2.91 µM [falling, full curve, poor fit].

Take `CCn1c(CNC(=O)c2ccccc2F)nnc1SCc1nc2ccccc2c(=O)[nH]1`: the cell number change is -22%. The AC50 under setting [2] was 1.84 µM [rising, partial curve]. For the same molecule, the concentration at half-maximal activity (AC50) under setting [1] is 3.26 µM [rising, single point].

Regarding `Cc1ccc(C)c(C(C)NC(=O)Cc2cccs2)c1` (configuration not stated), the cell number change is 10.2%. Besides, the AC50 under setting [1] was 23.1 µM [falling, single point].

Turning to `O=C(CC(NCCc1ccccc1)C(=O)O)Nc1ccc(O)cc1` (configuration not stated), the cell number change is -40.9%. The AC50 under setting [2] is 0.366 µM [falling, full curve].

Turning to `CCOC(=O)c1ccccc1NC(=O)CSc1ncc(C(=O)OCC)c(N)n1`, the cell number change is -22.4%. Moreover, the AC50 under setting [1] was 0.13 µM [rising, full curve, poor fit].

As for `O=C(CNS(=O)(=O)c1cccs1)N1CCN(c2ccccc2F)CC1`, the cell number change is 17.6%. In addition, the AC50 under setting [2] was 0.82 µM [rising, full curve, poor fit]. Under setting [1], the half-maximal activity concentration (AC50) is 2.91 µM [rising, single point].

Turning to `O=C(Nc1ccccc1C(=O)N1CCCCC1)c1ccc(Cl)cc1Cl`, the cell number change was -1.28%.

Regarding `CC(=O)Oc1cccc(/C=C2\C=C(c3ccc(C)cc3)OC2=O)c1`, the cell number change came out at 10.7%.

Turning to `CCn1c(SCC(=O)Nc2nc(C)cs2)nnc1-c1ccoc1C`, the cell number change was determined as 96%. Moreover, the AC50 under setting [2] was 0.651 µM [rising, single point]. Moreover, the AC50 under setting [1] was 0.651 µM [rising, full curve].

As for `CC(OC(=O)c1nn(C)c(=O)c2ccccc12)C(=O)NC1CCCCC1C` (configuration not stated), the concentration at half-maximal activity (AC50) is 0.00461 µM [falling, full curve, poor fit] under setting [2] and 2.06 µM [falling, partial curve, poor fit] under setting [1].

As to `O=C(Nc1cccc(-c2cccc(Cl)c2)c1)C1CCN(C2CCC2)CC1`, the cell number change worked out at 5.66%. For the same molecule, under setting [1], the AC50 is 29.1 µM [falling, partial curve, poor fit].

On to `O=C(CCN1CCOCC1)Nc1cccc(Br)c1`, for which the cell number change is -12%. Further, the AC50 under setting [1] was 0.0103 µM [falling, full curve, poor fit].

Turning to `Cc1ccc(NC(=O)c2cc(-c3ccccc3)nn2-c2ccccc2)c(Br)c1`, the cell number change is -5.88%. Further, under setting [1], the AC50 was 29.1 µM [falling, partial curve, poor fit].

In the case of `COC(=O)c1cc(C(=O)Nc2nnc(CC(C)C)s2)cc([N+](=O)[O-])c1`, the cell number change turned out to be 22.3%. For the same molecule, the AC50 under setting [1] is 29.1 µM [rising, single point].

For `COc1cccc(C(=O)COc2ccc3c(C)cc(=O)oc3c2)c1`, the cell number change stood at 24.3%.

As for `O=C(c1nnc(-c2ccncc2)o1)c1ccccc1Cl`, the cell number change was determined as 16.8%. The AC50 under setting [1] was 18.4 µM [rising, single point].

`CN(C)S(=O)(=O)c1ccc(C(=O)Nc2nnc(SCc3ccccc3)s2)cc1`: the cell number change was 7.12%.

Take `Cc1n[nH]c(=O)nc1NCc1ccccc1`: the cell number change was 27.2%. The AC50 under setting [1] is 8.2 µM [falling, single point].

Consider `CC[C@H](C)C(=O)O[C@H]1CCC=C2C=C[C@H](C)[C@H](CC[C@@H]3C[C@@H](O)CC(=O)O3)[C@H]21`, for which the cell number change was 21.3% and -63.3%. Further, the AC50 under setting [2] was 2.31 µM [rising, full curve, poor fit] and 23.1 µM [falling, partial curve, poor fit]. The AC50 under setting [1] was 23.1 µM [falling, partial curve, poor fit].

In the case of `Brc1ccc(OCCOc2cccc3cccnc23)cc1`, the cell number change is -17.2%. The AC50 under setting [1] is 29.1 µM [falling, single point].

Take `COC(=O)C1CCN(S(=O)(=O)CCNC(=O)c2cccc(OC)c2)CC1`: the cell number change amounted to 6.85%. Further, under setting [1], the AC50 is 0.651 µM [falling, full curve, poor fit].

Take `Nc1nonc1C(=O)OCC(=O)N1CCOCC1`: the cell number change was found to be 1.35%.

Consider `Cc1ccc(-c2csc(=S)n2CC(=O)OCC(=O)NC(C)C(C)C)cc1` (configuration not stated), for which the cell number change was -14.4%. Further, under setting [1], the AC50 was 29.1 µM [falling, single point].

With `C/C(=N/Nc1nc(C)cc(C)n1)c1ccc(Br)cc1`, the cell number change was -0.365%.

As for `C/C(=N\NC(=O)Cc1ccc(Cl)cc1)c1cccnc1`, the cell number change stood at 16.2%. Also, the AC50 under setting [1] was 0.116 µM [rising, full curve, poor fit].

Turning to `CCC(c1nnc(SCC(=O)Nc2ccc(C(C)=O)cc2)n1C1CCCCC1)N(C)C` (configuration not stated), the AC50 under setting [1] is 0.461 µM [falling, single point].

For `O=[N+]([O-])c1ccccc1C1Nc2cccc3cccc(c23)N1`, the cell number change is -67.8%. Also, the half-maximal activity concentration (AC50) under setting [2] was 4.11 µM [falling, full curve]. Also, the AC50 under setting [1] is 5.17 µM [falling, full curve].

One may read the AC50 as the concentration at which the activity in the assay is half-maximal.
